Residue numbers refer to the chain shown, from its start. No constants are given. Whether binding was seen depends on the method and setting. In cells and extracts the contact can be indirect. Some binding calls cover weakened binding; strength is not graded here.
What was measured:
Assay in all cases: co-IP
[1] = target: T1, TRAK2-mScarlet E242R (human) (UniProt O60296)
T1 sequence: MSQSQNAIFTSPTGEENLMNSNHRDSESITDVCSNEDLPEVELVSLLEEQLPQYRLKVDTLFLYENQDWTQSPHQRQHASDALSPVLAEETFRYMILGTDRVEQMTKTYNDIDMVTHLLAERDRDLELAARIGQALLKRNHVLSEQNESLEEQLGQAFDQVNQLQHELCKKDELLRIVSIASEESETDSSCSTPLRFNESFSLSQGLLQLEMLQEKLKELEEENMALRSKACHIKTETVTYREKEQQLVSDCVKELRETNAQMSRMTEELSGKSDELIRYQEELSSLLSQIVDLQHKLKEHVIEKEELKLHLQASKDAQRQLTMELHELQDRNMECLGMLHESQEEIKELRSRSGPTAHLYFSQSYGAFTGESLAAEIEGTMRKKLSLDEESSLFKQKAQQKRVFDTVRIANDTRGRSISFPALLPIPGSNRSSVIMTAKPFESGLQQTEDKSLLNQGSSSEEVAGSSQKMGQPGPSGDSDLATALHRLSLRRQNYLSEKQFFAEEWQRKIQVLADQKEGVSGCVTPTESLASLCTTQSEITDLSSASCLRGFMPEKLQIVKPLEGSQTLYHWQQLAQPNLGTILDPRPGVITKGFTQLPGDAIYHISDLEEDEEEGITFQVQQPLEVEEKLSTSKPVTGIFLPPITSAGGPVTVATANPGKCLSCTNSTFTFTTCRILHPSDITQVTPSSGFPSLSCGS

[2] = target: T2, TRAK2-mScarlet with alanine substitutions of F92 and M95 (DRH mutant) (human) (UniProt O60296)
T2 sequence: T1 sequence with F92A, M95A, R242E

[3] = target: T3, TRAK2-mScarlet (wild type, truncated before the mitochondrial binding domain) (human) (UniProt O60296)
T3 sequence: T1 sequence with R242E

Measured: binding

B1: kinesin-1 (KIF5B) (natural protein, human (endogenous in hTERT RPE-1), UniProt P33176 1-963, looked up)
chain: MADLAECNIKVMCRFRPLNESEVNRGDKYIAKFQGEDTVVIASKPYAFDRVFQSSTSQEQVYNDCAKKIVKDVLEGYNGTIFAYGQTSSGKTHTMEGKLHDPEGMGIIPRIVQDIFNYIYSMDENLEFHIKVSYFEIYLDKIRDLLDVSKTNLSVHEDKNRVPYVKGCTERFVCSPDEVMDTIDEGKSNRHVAVTNMNEHSSRSHSIFLINVKQENTQTEQKLSGKLYLVDLAGSEKVSKTGAEGAVLDEAKNINKSLSALGNVISALAEGSTYVPYRDSKMTRILQDSLGGNCRTTIVICCSPSSYNESETKSTLLFGQRAKTIKNTVCVNVELTAEQWKKKYEKEKEKNKILRNTIQWLENELNRWRNGETVPIDEQFDKEKANLEAFTVDKDITLTNDKPATAIGVIGNFTDAERRKCEEEIAKLYKQLDDKDEEINQQSQLVEKLKTQMLDQEELLASTRRDQDNMQAELNRLQAENDASKEEVKEVLQALEELAVNYDQKSQEVEDKTKEYELLSDELNQKSATLASIDAELQKLKEMTNHQKKRAAEMMASLLKDLAEIGIAVGNNDVKQPEGTGMIDEEFTVARLYISKMKSEVKTMVKRCKQLESTQTESNKKMEENEKELAACQLRISQHEAKIKSLTEYLQNVEQKKRQLEESVDALSEELVQLRAQEKVHEMEKEHLNKVQTANEVKQAVEQQIQSHRETHQKQISSLRDEVEAKAKLITDLQDQNQKMMLEQERLRVEHEKLKATDQEKSRKLHELTVMQDRREQARQDLKGLEETVAKELQTLHNLRKLFVQDLATRVKKSAEIDSDDTGGSAAQKQKISFLENNLEQLTKVHKQLVRDNADLRCELPKLEKRLRATAERVKALESALKEAKENASRDRKRYQQEVDRIKEAVRSKNMARRGHSAQIAKPIRPGQHPAASPTHPSAIRGGGAFVQNSQPVAVRGGGGKQV
binds weakly: all assays above

— doi:10.1101/2024.09.13.612963 (bioRxiv, 2024)
